Measurements: publication PMC10442235
Results are given in words; binding and its absence hold for the method and conditions named. In cells and extracts the contact can be indirect. These calls come from enrichment with a bait or labelling near it, and not all partners need be listed. Sequences can lack the tags named with a protein.

Legend:
[1] = biological target: T1, ProtA-TEV-tagged scSyo1 (S. cerevisiae) (UniProt Q07395); test: affinity purification with mass spectrometry; split-tag tandem affinity purification (ProtA bait on IgG Sepharose, TEV elution, FLAG bait on anti-FLAG gel, FLAG peptide elution) from lysate of S. cerevisiae expressing the factors; NB-HEPES buffer; SDS-PAGE, Coomassie, bands identified by mass spectrometry; the complexes contain yeast 5S rRNA
T1 sequence: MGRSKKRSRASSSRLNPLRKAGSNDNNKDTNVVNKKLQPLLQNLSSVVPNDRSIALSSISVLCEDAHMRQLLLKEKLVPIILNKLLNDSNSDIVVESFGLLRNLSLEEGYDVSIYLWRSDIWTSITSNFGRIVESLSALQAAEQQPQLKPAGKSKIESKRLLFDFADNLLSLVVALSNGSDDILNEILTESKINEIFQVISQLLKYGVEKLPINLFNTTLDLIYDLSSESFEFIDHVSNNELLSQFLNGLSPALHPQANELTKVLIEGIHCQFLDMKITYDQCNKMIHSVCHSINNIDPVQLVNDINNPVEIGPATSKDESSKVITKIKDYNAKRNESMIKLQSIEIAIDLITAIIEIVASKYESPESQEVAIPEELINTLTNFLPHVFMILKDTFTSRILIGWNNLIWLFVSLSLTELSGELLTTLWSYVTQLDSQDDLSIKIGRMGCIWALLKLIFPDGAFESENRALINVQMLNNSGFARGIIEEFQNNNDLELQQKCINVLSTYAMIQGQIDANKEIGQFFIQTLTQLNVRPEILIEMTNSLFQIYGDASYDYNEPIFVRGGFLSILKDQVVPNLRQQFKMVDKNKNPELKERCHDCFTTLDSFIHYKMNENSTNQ

[2] = biological target: T2, pA-TEV-uL18 (yeast) (S. cerevisiae) (UniProt P26321); test: as above
T2 sequence: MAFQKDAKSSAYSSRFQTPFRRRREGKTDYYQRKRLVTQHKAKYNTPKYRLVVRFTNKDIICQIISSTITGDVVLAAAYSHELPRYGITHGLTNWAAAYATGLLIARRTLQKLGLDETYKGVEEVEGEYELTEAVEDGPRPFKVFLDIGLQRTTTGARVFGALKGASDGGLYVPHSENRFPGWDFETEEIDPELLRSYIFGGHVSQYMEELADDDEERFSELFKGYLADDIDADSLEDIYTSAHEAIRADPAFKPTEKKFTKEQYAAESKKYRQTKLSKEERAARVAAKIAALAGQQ

B1: FLAG-scRrs1 (protein, UniProt Q08746 1-203)
chain: MSAEDYKNLPVTVEKPIPVVYDLGNLAAFDSNVLDKNDLDSSNARREEKIKSLTRDNVQLLINQLLSLPMKTTTESVGGTGGQSSVMTLLQLPDPTTDLPREKPLPKAKAMTKWEKFAAKKGIKPKERAGKMIYDEASGEWVPKWGYKGANKKLDDQWLVEVDDKVKGTDNELIDPRTLNRAERKRLVKKNEKQQRRNMKNAL
In the case of B1, the binding [1] is reported as “binds” and the binding [2] is reported as “binds”.
